Assay results taken from the supplement of paper PMC4604168 (melanoma cell lines).
The list shows a part of the results. Many values rest on one well or one pass, so single values are uncertain.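 The apoptosis fraction was the count of cleaved-PARP antibody-stained nuclei relative to all DNA-stained nuclei, imaged in 1,536-well plates. Screening doses were set so most cells survived, and baseline and induced cleaved-PARP levels vary greatly across cell lines.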

system: SkMel30; assay: cleaved PARP positive nuclei fraction relative to DMSO control; melanoma cells; higher = more apoptosis; conditions: library dose: low library concentration; 72 h

Compound | cleaved PARP positive nuclei fraction
CO[C@H]1C[C@@H]2CC[C@@H](C)[C@@](O)(O2)C(=O)C(=O)N2CCCC[C@H]2C(=O)O[C@H]([C@H](C)C[C@@H]2CC[C@@H](OCCO)[C@H](OC)C2)CC(=O)[C@H](C)/C=C(\C)[C@@H](O)[C@@H](OC)C(=O)[C@H](C)C[C@H](C)/C=C/C=C/C=C/1C [everolimus] + Cn1cc(/C=C2\C(=O)Nc3cccnc32)c2ccccc21 [GW441756] (first compound 0.02 µM, partner dose 0.4 µM) | 239%
CO[C@H]1C[C@@H]2CC[C@@H](C)[C@@](O)(O2)C(=O)C(=O)N2CCCC[C@H]2C(=O)O[C@H]([C@H](C)C[C@@H]2CC[C@@H](OCCO)[C@H](OC)C2)CC(=O)[C@H](C)/C=C(\C)[C@@H](O)[C@@H](OC)C(=O)[C@H](C)C[C@H](C)/C=C/C=C/C=C/1C [everolimus] + Cn1c(Nc2ccc(C(F)(F)F)cc2)nc2cc(Oc3ccnc(-c4ncc(C(F)(F)F)[nH]4)c3)ccc21 [CHIR265] (first compound 0.02 µM, partner dose 0.08 µM) | 48.3%
CO[C@H]1C[C@@H]2CC[C@@H](C)[C@@](O)(O2)C(=O)C(=O)N2CCCC[C@H]2C(=O)O[C@H]([C@H](C)C[C@@H]2CC[C@@H](OCCO)[C@H](OC)C2)CC(=O)[C@H](C)/C=C(\C)[C@@H](O)[C@@H](OC)C(=O)[C@H](C)C[C@H](C)/C=C/C=C/C=C/1C [everolimus] + COc1cc2ncnc(Nc3ccc(Oc4ccccc4)cc3)c2cc1OC [SrcI1] (first compound 0.02 µM, partner dose 2 µM) | 27.3%
